For some of these results: Negatives hold for the conditions tested. At least one verdict rests on a figure or table, not on a statement of the authors. For some of these results: Construct, isoform or probe ends are uncertain for at least one entry. For some of these results: Tags and fusion partners may be left off the protein sequences shown.
Legend:
Assay in all cases: EMSA
[1] = target: T1, OsFD7 (OsbZIP62)-GST (Oryza sativa (rice)) (UniProt B7F384)
T1 sequence (looked up, limits assumed): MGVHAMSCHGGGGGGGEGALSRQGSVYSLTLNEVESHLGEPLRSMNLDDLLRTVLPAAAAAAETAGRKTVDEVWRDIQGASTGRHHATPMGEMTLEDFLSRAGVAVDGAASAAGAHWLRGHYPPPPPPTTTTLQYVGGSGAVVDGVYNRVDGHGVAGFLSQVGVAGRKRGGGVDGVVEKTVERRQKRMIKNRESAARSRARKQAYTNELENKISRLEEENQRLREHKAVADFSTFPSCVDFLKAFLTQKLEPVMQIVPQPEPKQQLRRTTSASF

[2] = target: OsFTL1-GST (Oryza sativa (rice)) (UniProt B7ELI3)
[3] = tested on: OsFD7 (OsbZIP62)-GST + OsFTL1-GST + OsGF14b-GST; settings: supershift with all three proteins
[4] = target: T2, OsGF14b-GST (Oryza sativa (rice)) (UniProt Q7XTE8)
T2 sequence (looked up, limits assumed): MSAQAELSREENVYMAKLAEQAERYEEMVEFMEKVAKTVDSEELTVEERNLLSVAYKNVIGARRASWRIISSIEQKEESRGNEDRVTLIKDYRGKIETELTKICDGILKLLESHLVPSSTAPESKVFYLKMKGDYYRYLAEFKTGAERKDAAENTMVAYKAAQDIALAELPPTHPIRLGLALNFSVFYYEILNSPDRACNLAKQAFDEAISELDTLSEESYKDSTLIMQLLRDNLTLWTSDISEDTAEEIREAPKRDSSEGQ

[5] = tested on: OsFD7 (OsbZIP62)-GST + OsFTL1-GST; settings: supershift

Sequence: AATGCAAAGCGAAGGTGACACT (double strand) [Non CB oligo]
- binding result [1]: no binding

Sequence: CTTCACGAGACGTCGATAATCA (double strand) [CB oligo]
- binding result [2]: no binding
- binding result [3]: binds
- binding result [4]: no binding
- binding result [1]: binds
- binding result [5]: binds

Sequence: TATGGTGAAGCGATTGCCTAG (double strand) [Non GB oligo]
- binding result [1]: no binding

Source: publication doi:10.1101/2021.03.09.434543
